Test results: paper doi:10.1101/2025.03.19.644201
These are yes or no findings as the source states them, for the method shown. In cells and extracts the contact can be indirect. Some binding calls cover weakened binding; strength is not graded here. Blank lines part the entries; values can stand above or below the molecule they belong to.

Amino acid sequences for entries named in this document (tags omitted).
UniProt P35222: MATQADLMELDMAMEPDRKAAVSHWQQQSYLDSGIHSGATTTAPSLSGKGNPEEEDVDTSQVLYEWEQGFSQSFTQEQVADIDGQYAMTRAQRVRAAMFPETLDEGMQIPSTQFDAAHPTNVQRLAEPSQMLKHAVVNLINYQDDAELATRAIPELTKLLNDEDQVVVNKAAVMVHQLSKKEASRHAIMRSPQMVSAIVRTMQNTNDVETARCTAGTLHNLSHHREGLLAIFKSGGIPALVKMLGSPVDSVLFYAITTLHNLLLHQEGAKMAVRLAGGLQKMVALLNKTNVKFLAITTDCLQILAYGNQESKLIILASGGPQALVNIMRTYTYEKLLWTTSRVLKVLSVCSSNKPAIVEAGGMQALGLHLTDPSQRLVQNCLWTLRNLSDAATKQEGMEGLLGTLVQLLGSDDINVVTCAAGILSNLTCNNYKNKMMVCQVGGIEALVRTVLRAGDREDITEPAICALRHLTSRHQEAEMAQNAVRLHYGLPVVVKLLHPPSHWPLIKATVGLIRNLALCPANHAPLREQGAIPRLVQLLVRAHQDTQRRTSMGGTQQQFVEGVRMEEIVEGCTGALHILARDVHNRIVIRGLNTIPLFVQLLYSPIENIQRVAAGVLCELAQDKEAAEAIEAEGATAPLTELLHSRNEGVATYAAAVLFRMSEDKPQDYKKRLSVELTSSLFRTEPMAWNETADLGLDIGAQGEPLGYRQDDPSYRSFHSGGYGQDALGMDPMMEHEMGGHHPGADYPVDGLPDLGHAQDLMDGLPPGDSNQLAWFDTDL

Legend:
[1] = biological target: c-Jun (human (endogenous in J-pouch organoids)) (UniProt P05412); assay: co-IP
[2] = biological target: T1, c-Jun (human (endogenous in J-pouch organoids)), P05412; assay: co-IP; settings: remark: other sources report otherwise
T1 chain: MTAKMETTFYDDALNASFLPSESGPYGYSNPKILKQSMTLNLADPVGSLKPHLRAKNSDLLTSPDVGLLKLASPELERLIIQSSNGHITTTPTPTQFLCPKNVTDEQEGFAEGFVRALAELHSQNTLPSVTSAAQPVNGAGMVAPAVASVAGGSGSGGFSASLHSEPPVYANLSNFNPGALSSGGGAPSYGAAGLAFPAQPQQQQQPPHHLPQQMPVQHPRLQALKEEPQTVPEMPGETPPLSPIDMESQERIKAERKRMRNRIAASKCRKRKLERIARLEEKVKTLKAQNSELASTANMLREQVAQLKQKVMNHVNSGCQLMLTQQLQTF

B2: FRA1 (protein, UniProt P15407 1-271)
chain: MFRDFGEPGPSSGNGGGYGGPAQPPAAAQAAQQKFHLVPSINTMSGSQELQWMVQPHFLGPSSYPRPLTYPQYSPPQPRPGVIRALGPPPGVRRRPCEQISPEEEERRRVRRERNKLAAAKCRNRRKELTDFLQAETDKLEDEKSGLQREIEELQKQKERLELVLEAHRPICKIPEGAKEGDTGSTSGTSSPPAPCRPVPCISLSPGPVLEPEALHTPTLMTTPSLTPFTPSLVFTYPSTPEPCASAHRKSSSSSGDPSSDPLGSPTLLAL
binding [1]: binds

B3: BATF (protein, UniProt Q16520 1-125)
chain: MPHSSDSSDSSFSRSPPPGKQDSSDDVRRVQRREKNRIAAQKSRQRQTQKADTLHLESEDLEKQNAALRKEIKQLTEELKYFTSVLNSHEPLCSVLAASTPSPPEVVYSAHAFHQPHVSSPRFQP
binding [1]: binds

Continued, values first:

binding [1]: binds
Molecule: β-catenin (from UniProt P35222 1-781)

binding [2]: binds
B1: JUNB, P17275 1-347 (protein)
chain: MCTKMEQPFYHDDSYTATGYGRAPGGLSLHDYKLLKPSLAVNLADPYRSLKAPGARGPGPEGGGGGSYFSGQGSDTGASLKLASSELERLIVPNSNGVITTTPTPPGQYFYPRGGGSGGGAGGAGGGVTEEQEGFADGFVKALDDLHKMNHVTPPNVSLGATGGPPAGPGGVYAGPEPPPVYTNLSSYSPASASSGGAGAAVGTGSSYPTTTISYLPHAPPFAGGHPAQLGLGRGASTFKEEPQTVPEARSRDATPPVSPINMEDQERIKVERKRLRNRLAATKCRKRKLERIARLEDKVKTLKAENAGLSSTAGLLREQVAQLKQKVMTHVSNGCQLLLGVKGHAF
